# Laboratory results taken from PubChem BioAssay AID504444 (National Center for Advancing Translational Sciences (NCATS), 2011).
# Hit rate of the full screen: of about 360,000 compounds, about 7,500 (2.1%) were called active. The shares of active, inactive and inconclusive entries below differ from those in the screen. Calls follow the shape of the dose curve; as a rule, active = well fitted inhibition curve with a large enough effect; inconclusive = small, poorly fitted or top-dose-only effect, or effect the other way; inactive = flat fitted curve, though single readings scatter. A potency beside an inconclusive call is a rough fit, not a confirmed value.
# Experiment: Nrf2 qHTS screen for inhibitors; also: nearly all actives have a fitted effect of over 60% in size
# Details: A549 ARE-Fluc reporter, luciferase luminescence, 18-24 h; series mostly up to 46 µM
# Summary of the method: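 Cells were seeded and rested 2 h, then exposed to compounds for 18-24 h. CellTiter-Fluor was read first as a viability measure. BugLite was added 15 min before the final luminescent read of ARE-luciferase activity in A549 cells.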
# Potency is read from the fitted curve at half-maximal effect.
row,Compound,Potency
1,Cc1cccc(NS(=O)(=O)c2ccc(NC(=O)CN(c3cc([N+](=O)[O-])ccc3C)S(C)(=O)=O)cc2)c1,active: 18.4 µM
2,Cc1noc(C)c1-c1ccc2ncnc(NCc3cccc(F)c3)c2c1,"inconclusive: 16.4 µM [falling, partial curve]"
3,C/C(=N/NC(=O)c1ccc(Br)o1)c1cccs1,"inconclusive: 29.1 µM [activator, single point]"
4,COc1ccc(C2=CC(=O)CC(c3ccc(OC)cc3)C2)cc1 (stereo not drawn),"inconclusive: 25.9 µM [activator, single point]"
5,Fc1ccc2cnc(-c3cccnc3)cc2c1,"inconclusive: 10.3 µM [activator, partial curve]"
6,Cc1cc(N2CCN(C)CC2)nc2ccc(NC(=O)CCC(=O)NCc3ccco3)cc12,inactive
7,CCOC(=O)C(C)Oc1cccc2c(=O)n(CC(=O)NCc3ccc(F)cc3)ccc12 (stereo not drawn),"inconclusive: 29.1 µM [activator, single point]"
8,COc1ccc(CCN(C)C(=O)CSc2nc3ccccc3c(=O)n2CC2CCCO2)cc1OC (stereo not drawn),"inconclusive: 0.0259 µM [falling, full curve, poor fit]"
9,O=C(C[n+]1ccn(-c2ccccc2)c1)c1ccc([N+](=O)[O-])cc1,"inconclusive: 29.1 µM [falling, single point]"
10,COc1cccc(NC(C)=[N+](C)CCNS(=O)(=O)c2ccc(Cl)cc2)c1,"inconclusive: 25.9 µM [activator, partial curve, poor fit]"
11,CCC(C)Sc1nnc(CNC(=O)C23CC4CC(CC(C4)C2)C3)n1C1CCCCC1 (stereo not drawn),"inconclusive: 23.1 µM [falling, single point]"
12,CCc1ccccc1NC(=O)Nc1cccn(Cc2ccccc2F)c1=O,"inconclusive: 23.1 µM [falling, single point]"
13,COc1ccc(-c2noc(-c3ccc(Cl)cc3)n2)cc1,"inconclusive: 3.66 µM [activator, full curve]"
14,CC(C)C(=O)c1c(C(C)C)nn2ccccc12,"inconclusive: 29.1 µM [falling, single point]"
15,C#CCOc1ccc(/C=C2/C(=O)ON=C2C)cc1Cl,inactive
16,CCN1C(=O)[C@H]2[C@@H](c3ccc(-c4ccc(F)cc4)c(OC)c3)N[C@@](C)(C(=O)OC)[C@H]2C1=O,inactive
17,O=C(Cc1cccs1)NCc1cccc(CNC(=O)Cc2cccs2)c1,"inconclusive: 4.61 µM [falling, partial curve, poor fit]"
18,CCN(CC)CCOC(=O)c1ccc2c(c1)OCCO2,"inconclusive: 25.9 µM [activator, single point]"

# Look-ups from above.
# CCOC(=O)C(C)Oc1cccc2c(=O)n(CC(=O)NCc3ccc(F)cc3)ccc12 (stereo not drawn) – Potency: inconclusive: 29.1 µM [activator, single point]
# C#CCOc1ccc(/C=C2/C(=O)ON=C2C)cc1Cl – Potency: inactive
